Here are results for one molecule from patent publication US20230374090A1 (SURROZEN OPERATING, published 2023).

Results are given in words; binding and its absence hold for the method and conditions named. Some results given as binding are weak or reduced against the parent protein; the word gives no strength.

This test addresses T1, human ASGR1 (human, UniProt P07306 62-291, limits assumed).
T1 construct: also called asialoglycoprotein receptor 1; hASGR1
T1 sequence (looked up): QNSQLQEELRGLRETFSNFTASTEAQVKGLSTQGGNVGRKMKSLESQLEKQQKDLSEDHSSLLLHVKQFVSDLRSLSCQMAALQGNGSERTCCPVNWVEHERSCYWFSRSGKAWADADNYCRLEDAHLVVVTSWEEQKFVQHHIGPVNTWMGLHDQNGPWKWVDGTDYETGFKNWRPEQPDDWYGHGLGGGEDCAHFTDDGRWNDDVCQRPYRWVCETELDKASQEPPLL
As to the kind of experiment: kinetic binding to human ASGR1, IgG1 format.

B1: 8M24 humanized L1H1 (antibody, V domains shown)
VH: EVQLVQSGAEVKKPGSSVKVSCKASGYTFTNYGINWVRQAPGQGLEWMGEIFPRSDNTFYAQKFQGRVTITADKSTSTAYMELSSLRSEDTAVYYCARKGRDYGTSHYFDYWGQGTTVTVSS
VL: DIQMTQSPSSLSASVGDRVTITCRISENIYSNLAWYQQKPGKAPKLLIYAAINLADGVPSRFSGSGSGTDFTLTISSLQPEDFATYYCQHFWGTPFTFGQGTKLEIK
notes: also called 8M24 humanized 1
Regarding B1, the binding result is reported as “binds”.
